# The other results are listed elsewhere or left out.
# B1: il2ra_site1_1z92_normal_mot_73a3237f21306322153cb43486d2ff88_0001_1_af2_000000006_0001_34_49_H_._66959ead3e6c57cb3ef8243f3eb758e0_0001_1_0001_0000200022_0000001 … (protein)
# chain: SQAEEELLEAVEAEDEEALRAFVRTLLRDTKDPALAAQLLRYLVKKLGLPEEVLERLLALLRELA
# B2: il2ra_site2_3nfp_normal_mot_HHH_b1_04762_000000120_0001_42_54_H_._HHH_b1_05779_0001_0000400008_0000001_0 (protein)
# chain: SSSSSEAEEYIRAALLLVEEALEQGDPEIARRILEMARKLAEDIKNEELEEEVERLEELLSSSSS
# B3: il2ra_site2_3nfp_sap_15_mot_HHH_b1_01080_000000101_0001_40_56_H_._HHH_b1_05979_af2_0001_0000200007_0000001_1_0001 (protein)
# chain: SSEEELRELVEEIREVAEEKGDTLLFQMLAVAEWLLELLEKGKLDEEEKEYAEATIRRIYERVVS
# B4: il2ra_site1_3nfp_normal_mot_HHH_b1_00630_af2_000000193_0001_42_55_H_._HHH_b2_03971_0001_0000100002_0000001_0 (protein)
# chain: SSSSTEELHELSRLVEEAYRALSEGNEEEVRKLLEEARQLAEELNDKVARRLLEEIEKRLSSSSS
# B5: il2ra_site1_1z92_sap_28_mot_bd8a29364cd82b069db53908a9e83e48_0001_af2_000000035_0001_34_48_H_._9a199a1b38a1c46b7bc70ae92fd97a63_0001_1_0001_0000200022_0000001_0 … (protein)
# chain: SSSSSDKKEVYELFEEAQELLENGNPEEAERVLQEALELAEKLNNELMLRSIRLALSADSSSSSS
# B6: il2ra_site2_3nfp_sap_34_mot_HHH_b2_01071_af2_000000008_0001_40_57_H_._4f73251c1d0b1deba3e57965a38797fb_0001_1_0001_0000100010_0000001_0_0001_af2pred_0001_af2pre … (protein)
# chain: SSSSDLEEEVERLLEEVERLLKEGDEEEAEKLLKRAATIASEARNHELFAIVTALLEKLDSSSSS
# B7: il2ra_site2_2erj_sap_20_mot_HHH_b1_00682_af2_000000112_0001_43_57_H_._HHH_b1_06086_0001_0000100007_0000001_1_0001 (protein)
# chain: DLHEVYIAANVVAKAIPDPEELREVVEEIMRLAQEDPEEALRFAEEVIERLDPRLLEQLKELREK
# B8: il2ra_site2_3nfp_normal_mot_HHH_b2_07186_000000029_0001_1_18_H_._HHH_b1_01329_0001_0000100001_0000001_0 (protein)
# chain: SSSSSDEKLEKMVELAIESAESLGDEEVLERLRELLERAEEEGDFRLLLEAYALIARARRNSSSS
# B9: il2ra_site1_1z92_normal_mot_9c3e5e2d2b9ffb70dc788f52fbfab6d5_0001_1_af2_000000019_0001_53_65_H_._HHH_b1_02055_af2_0001_0000100007_0000001_0 (protein)
# chain: SSSSEEELEEFAKEVVEKLKKEFDLSEEQEEELQRVAERLIEAGSDPEKIEKILRKLAEANSSSS
# B10: il2ra_site1_2b5i_sap_15_mot_0e5a94e4a5addaac739760efb25f0f5d_0001_000000246_0001_18_32_H_._HHH_b2_04525_0001_0000300019_0000001_0_0001 (protein)
# chain: SSSSDNELIRFATEVVWRLAYRLGLSREQMKILNELAAELADKGLSEEEIEELLREEAEELSSSS
# B11: il2ra_site2_2erj_sap_22_mot_HHH_b2_08005_af2_000000017_0001_39_52_H_._HHH_b2_05393_0001_0000400035_0000001_0_0001 (protein)
# chain: SSSSDEELHRLFKLAVRILALIARGNPEEAKELLEELKELAEEANSDNAKEIVETLEKRLSSSSS
# B12: il2ra_site1_1z92_sap_14_mot_HHH_b1_00285_000000009_0001_24_39_H_._HHH_b2_00843_0001_0000700058_0000001_0_0001_af2pred_0001_af2pred_1 (protein)
# chain: SSSSDEKLRRDARIIVEAAVRAAGLSEEQEEELEEVARRLAEEGFSAHEIARILDEVALRLSSSS
# B13: il2ra_site1_2b5i_normal_mot_HHH_b2_04910_000000118_0001_1_19_H_._HHH_b1_00509_0001_0000100007_0000001_0_af2pred_dldesign_0_af2pred (protein)
# chain: SSSSDPELAKRLKETLKEADELYATDPAAAKALLEALLKELKAAGKKGFVKFVERVLESLESSSS
# B14: il2ra_site2_3nfp_normal_mot_HHH_b2_06150_000000217_0001_39_53_H_._HHH_b1_06882_af2_0001_0000100003_0000001_0 (protein)
# chain: SSSSDEEELRELLERIEKLFKEGDDEEARRLIAELTHLAYELNDSEIFFLLAELLFKLAQRSSSS
# B15: il2ra_site1_2b5i_normal_mot_HHH_b2_04910_000000118_0001_1_19_H_._HHH_b1_02607_0001_0000300018_0000001_0_af2pred_dldesign_0_af2pred (protein)
# chain: SSSSDFAEIRRLIEEADALYKAGKPEEAIKVLEEALKLAKERGAKALVRYIELALEQILASSSSS
# B16: il2ra_site2_2erj_normal_mot_HHH_b1_04294_af2_000000096_0001_1_18_H_._HHH_b1_00002_0001_0000600021_0000001_0 (protein)
# chain: SSSSDLEEAVEELEQLLREGDPEKVSKVAWELLRILHKVTDPELLREAARVLEEALEFLQKSSSS
# B17: il2ra_site1_2b5i_sap_12_mot_HHH_b2_04633_000000097_0001_38_52_H_._HHH_b1_08698_af2_0001_0000200011_0000001_0_0001_af2pred_dldesign_0_af2pred (protein)
# chain: SSSSSREELEELLRKLKEAVAAKDLEKAEELAKEIADLADELGDRETIKEAVRLLYRVRIASSSS
# B18: il2ra_site1_2b5i_sap_9_mot_HHH_b2_07873_af2_000000005_0001_23_39_H_._HHH_b1_06695_0001_0000100007_0000001_0_0001 (protein)
# chain: SSSSNEEARELQELFHEVDRLDKEGDPEEARRLAEEALRLAEELNNRSLFRSLEFALRSLSSSSS
# B19: il2ra_site2_3nfp_sap_18_mot_HHH_b2_00822_000000043_0001_41_55_H_._9b27c49f4244f023ba89377d59a42b61_0001_0001_0000200043_0000001_0_0001 (protein)
# chain: SSSSSDVEERVRELLEEAEQTEDPEEVRKLLAEAAQLAWEARDPELFFAVAEVLFRLEQSSSSSS
# Target: il2ra, P01589
# Test: yeast display titration
row,Binder,apparent Kd
1,B1,inactive: no binding seen
2,B2,inactive: no binding seen
3,B3,inactive: no binding seen
4,B4,inactive: no binding seen
5,B5,inactive: no binding seen
6,B6,inactive: no binding seen
7,B7,inactive: no binding seen
8,B8,inactive: no binding seen
9,B9,inactive: no binding seen
10,B10,inactive: no binding seen
11,B11,inactive: no binding seen
12,B12,inactive: no binding seen
13,B13,inactive: no binding seen
14,B14,inactive: no binding seen
15,B15,inactive: no binding seen
16,B16,inactive: no binding seen
17,B17,inactive: no binding seen
18,B18,inactive: no binding seen
19,B19,inactive: no binding seen

# Part of the list above, set out differently:
row	Binder	apparent Kd
2	B2	inactive: no binding seen
13	B13	inactive: no binding seen

# Reference: article PMC10163288
